# Measured values reported in PMC10622577, “Structural basis for stabilisation of the RAD51 nucleoprotein filament by BRCA2” (Nature Communications, 2023).
# Protein sequences, listed by entry. Tags and fused reporters are not part of them.
# UniProt Q06609, whole entry: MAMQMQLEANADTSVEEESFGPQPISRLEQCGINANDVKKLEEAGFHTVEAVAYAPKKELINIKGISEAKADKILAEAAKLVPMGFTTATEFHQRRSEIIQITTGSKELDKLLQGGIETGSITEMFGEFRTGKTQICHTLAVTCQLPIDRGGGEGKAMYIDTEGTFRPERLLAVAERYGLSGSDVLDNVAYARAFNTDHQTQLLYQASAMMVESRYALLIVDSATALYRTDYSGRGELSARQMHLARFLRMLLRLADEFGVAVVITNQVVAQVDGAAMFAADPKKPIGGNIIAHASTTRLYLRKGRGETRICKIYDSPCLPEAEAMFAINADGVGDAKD
# UniProt Q06609, whole entry D184A/D187A: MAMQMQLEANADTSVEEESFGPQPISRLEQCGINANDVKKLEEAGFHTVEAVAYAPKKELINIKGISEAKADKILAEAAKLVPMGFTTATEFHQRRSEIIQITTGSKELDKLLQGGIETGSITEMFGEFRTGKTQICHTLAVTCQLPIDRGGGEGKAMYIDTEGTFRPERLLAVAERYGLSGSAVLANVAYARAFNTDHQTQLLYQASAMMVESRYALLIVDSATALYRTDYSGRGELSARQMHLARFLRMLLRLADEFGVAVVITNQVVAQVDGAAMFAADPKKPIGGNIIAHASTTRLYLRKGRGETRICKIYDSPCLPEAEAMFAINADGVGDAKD
# UniProt Q06609, whole entry D184A: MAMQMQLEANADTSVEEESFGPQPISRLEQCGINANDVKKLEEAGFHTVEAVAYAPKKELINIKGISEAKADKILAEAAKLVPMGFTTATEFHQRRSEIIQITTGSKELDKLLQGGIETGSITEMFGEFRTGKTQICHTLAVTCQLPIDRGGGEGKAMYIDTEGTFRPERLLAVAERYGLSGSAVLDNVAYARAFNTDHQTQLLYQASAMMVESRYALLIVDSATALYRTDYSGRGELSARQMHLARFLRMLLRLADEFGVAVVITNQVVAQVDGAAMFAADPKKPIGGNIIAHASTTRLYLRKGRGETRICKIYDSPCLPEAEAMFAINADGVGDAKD
# For at least one entry, the source does not settle the construct or the ends of the probe. For some of these results: Weaker means in comparison with the reference protein, sequence or condition of that experiment. For some of these results: At least one verdict rests on a figure or table, not on a statement of the authors.
# Assays:
# [1] = biological target: RAD51 (Homo sapiens) (UniProt Q06609); assay: EMSA; settings: EMSA: 25 mM HEPES pH 7.5, 150 mM NaCl, 2 mM DTT, 2 mM ATP, 5 mM CaCl2, room temperature, recombinant protein
# [2] = tested on: RAD51 D184A + BRCA2 TR2 peptide; assay: EMSA; settings: TR2 binding to filament reduced, ATP, Ca2+, EMSA: 25 mM HEPES pH 7.5, 150 mM NaCl, 2 mM DTT, 2 mM ATP, 5 mM CaCl2, room temperature, recombinant protein, protein details: untagged (co-expressed with His6-MBP-BRC4)
# [3] = tested on: RAD51 D184A, D187A + BRCA2 TR2 peptide; assay: EMSA; settings: ATP, Ca2+, EMSA: 25 mM HEPES pH 7.5, 150 mM NaCl, 2 mM DTT, 2 mM ATP, 5 mM CaCl2, room temperature, recombinant protein, protein details: untagged (co-expressed with His6-MBP-BRC4)
# [4] = biological target: RAD51 D184A, D187A (Homo sapiens) (UniProt Q06609); assay: EMSA; settings: BRC4 pre-incubated, disruption severely impaired, EMSA: 25 mM HEPES pH 7.5, 150 mM NaCl, 2 mM DTT, 2 mM ATP, 5 mM CaCl2, room temperature, recombinant protein, protein details: untagged (co-expressed with His6-MBP-BRC4)
# [5] = biological target: RAD51 D184A (Homo sapiens) (UniProt Q06609); assay: EMSA; settings: BRC4 pre-incubated, disruption moderately reduced, EMSA: 25 mM HEPES pH 7.5, 150 mM NaCl, 2 mM DTT, 2 mM ATP, 5 mM CaCl2, room temperature, recombinant protein, protein details: untagged (co-expressed with His6-MBP-BRC4)
# [6] = biological target: RAD51 (Homo sapiens) (UniProt Q06609); assay: SPR; settings: BRC4 injected, filament disassembles, SPR: 25 mM HEPES pH 7.4, 100 mM NaCl, 2 mM DTT, 2 mM ATP, 5 mM CaCl2, 5 mM MgCl2, recombinant protein
# [7] = tested on: RAD51 D184A + BRCA2 TR2 peptide; assay: SPR; settings: TR2 on preformed filament, ATP, Ca2+, Mg2+, SPR: 25 mM HEPES pH 7.4, 100 mM NaCl, 2 mM DTT, 2 mM ATP, 5 mM CaCl2, 5 mM MgCl2, recombinant protein, protein details: untagged (co-expressed with His6-MBP-BRC4)
# [8] = tested on: RAD51 D184A, D187A + BRCA2 TR2 peptide; assay: SPR; settings: TR2 on preformed filament, weaker than D184A, ATP, Ca2+, Mg2+, SPR: 25 mM HEPES pH 7.4, 100 mM NaCl, 2 mM DTT, 2 mM ATP, 5 mM CaCl2, 5 mM MgCl2, recombinant protein, protein details: untagged (co-expressed with His6-MBP-BRC4)
# [9] = biological target: RAD51 D184A, D187A (Homo sapiens) (UniProt Q06609); assay: SPR; settings: BRC4 injected, disassembly largely reduced, SPR: 25 mM HEPES pH 7.4, 100 mM NaCl, 2 mM DTT, 2 mM ATP, 5 mM CaCl2, 5 mM MgCl2, recombinant protein, protein details: untagged (co-expressed with His6-MBP-BRC4)
# [10] = biological target: RAD51 D184A (Homo sapiens) (UniProt Q06609); assay: SPR; settings: BRC4 injected, disassembly moderately reduced, SPR: 25 mM HEPES pH 7.4, 100 mM NaCl, 2 mM DTT, 2 mM ATP, 5 mM CaCl2, 5 mM MgCl2, recombinant protein, protein details: untagged (co-expressed with His6-MBP-BRC4)
# [11] = tested on: RAD51 + MBP-TR2 S3291A; assay: EMSA; settings: TR2 mutant binding to filament drastically reduced; EMSA: 25 mM HEPES pH 7.5, 150 mM NaCl, 2 mM DTT, 2 mM ATP, 5 mM CaCl2, room temperature; recombinant …; label: 5' FAM; single-stranded DNA
# [12] = label: 5' FAM, single-stranded DNA
# [13] = label: 5' biotin, single-stranded DNA
sequence,measurement,setting,value
ATGGTGTGTGTAGGTTAATGTGAGGAGGAGAGGTGAAGAAGGAGGAGAGAAGAAGGAGGC (double strand) [60-bp dsDNA FAM],binding result,"[1]; ATP, Ca2+, label: 5' FAM on strand 1",binds
same,binding result,"[1]; BRC4 pre-incubated, disrupts filament formation, label: 5' FAM on strand 1",binds more weakly
same,binding result,[2]; label: 5' FAM on strand 1,binds more weakly
same,binding result,"[3]; TR2 binding to filament reduced, label: 5' FAM on strand 1",binds more weakly
same,binding result,[4]; label: 5' FAM on strand 1,binds
same,binding result,[5]; label: 5' FAM on strand 1,binds
ATGGTGTGTGTAGGTTAATGTGAGGAGGAGAGGTGAAGAAGGAGGAGAGAAGAAGGAGGC (double strand) [60-bp dsDNA biotin],binding result,[6]; label: 5' biotin on strand 1,binds more weakly
same,binding result,[7]; label: 5' biotin on strand 1,binds more weakly
same,binding result,[8]; label: 5' biotin on strand 1,binds more weakly
same,binding result,[9]; label: 5' biotin on strand 1,binds
same,binding result,[10]; label: 5' biotin on strand 1,binds
ATGGTGTGTGTAGGTTAATGTGAGGAGGAGAGGTGAAGAAGGAGGAGAGAAGAAGGAGGC (double strand) [60-bp dsDNA doubly biotinylated],binding result,"[1]; with or without mSA caps, label: 5' and 3' biotin on strand 1",binds
ATGGTGTGTGTAGGTTAATGTGAGGAGGAGAGGTGAAGAAGGAGGAGAGAAGAAGGAGGC [60-nt ssDNA FAM],binding result,"[1]; ATP, Ca2+, label: 5' FAM, single-stranded DNA",binds
same,binding result,"[1]; BRC4 pre-incubated, disrupts filament formation, label: 5' FAM, single-stranded DNA",binds more weakly
same,binding result,[11],binds more weakly
same,binding result,[2]; [12],binds more weakly
same,binding result,"[3]; TR2 binding to filament strongly reduced, label: 5' FAM, single-stranded DNA",binds more weakly
same,binding result,[4]; [12],binds
same,binding result,[5]; [12],binds
ATGGTGTGTGTAGGTTAATGTGAGGAGGAGAGGTGAAGAAGGAGGAGAGAAGAAGGAGGC [60-nt ssDNA biotin],binding result,[6]; [13],binds more weakly
same,binding result,[7]; [13],binds more weakly
same,binding result,[8]; [13],binds more weakly
same,binding result,[9]; [13],binds
same,binding result,[10]; [13],binds
ATGGTGTGTGTAGGTTAATGTGAGGAGGAGAGGTGAAGAAGGAGGAGAGAAGAAGGAGGC [60-nt ssDNA doubly biotinylated],binding result,"[1]; with or without mSA caps, label: 5' and 3' biotin, single-stranded DNA",binds
